In this experiment the target is T1, Flag-tagged CD73 (L3.7 cells) (UniProt P21589).
T1 sequence: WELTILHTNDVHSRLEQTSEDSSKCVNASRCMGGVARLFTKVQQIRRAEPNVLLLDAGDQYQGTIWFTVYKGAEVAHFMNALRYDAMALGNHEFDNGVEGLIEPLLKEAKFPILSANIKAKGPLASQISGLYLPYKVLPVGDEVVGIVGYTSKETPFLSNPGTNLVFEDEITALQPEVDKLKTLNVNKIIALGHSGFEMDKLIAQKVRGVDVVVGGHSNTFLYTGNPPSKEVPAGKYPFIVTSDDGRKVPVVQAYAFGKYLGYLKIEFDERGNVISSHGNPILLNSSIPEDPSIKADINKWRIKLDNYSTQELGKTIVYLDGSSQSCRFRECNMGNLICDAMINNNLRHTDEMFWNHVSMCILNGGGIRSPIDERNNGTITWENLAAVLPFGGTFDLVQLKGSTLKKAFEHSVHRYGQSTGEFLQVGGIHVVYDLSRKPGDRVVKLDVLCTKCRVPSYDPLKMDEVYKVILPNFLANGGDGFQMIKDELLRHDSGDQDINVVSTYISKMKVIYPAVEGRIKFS
Description: affinity purification with mass spectrometry; anti-Flag immunoprecipitation from L3.7 cells transduced with Flag-tagged CD73, LC-MS/MS (Orbitrap Elite); partners with >= 3 unique peptides.

Amino acid sequences for entries named in this document (tags omitted).
UniProt P19474: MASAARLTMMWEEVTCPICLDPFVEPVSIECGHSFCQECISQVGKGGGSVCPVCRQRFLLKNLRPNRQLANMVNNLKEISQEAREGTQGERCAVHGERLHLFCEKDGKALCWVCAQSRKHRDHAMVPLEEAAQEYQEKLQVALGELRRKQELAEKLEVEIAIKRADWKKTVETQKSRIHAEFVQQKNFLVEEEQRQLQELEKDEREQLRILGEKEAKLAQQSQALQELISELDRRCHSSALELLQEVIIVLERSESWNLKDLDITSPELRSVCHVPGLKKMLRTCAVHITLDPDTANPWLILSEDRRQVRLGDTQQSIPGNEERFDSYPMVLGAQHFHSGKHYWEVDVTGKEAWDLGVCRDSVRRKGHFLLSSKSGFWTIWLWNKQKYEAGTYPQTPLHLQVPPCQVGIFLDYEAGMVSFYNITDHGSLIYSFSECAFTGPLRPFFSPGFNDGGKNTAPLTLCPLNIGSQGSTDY

No constants are given. Whether binding was seen depends on the method and setting. In cells and extracts the contact can be indirect. Here binding means that the protein was enriched with, or labelled near, the bait; the list need not be complete. Where a sequence is shown, tags or fusion partners need not be part of it.

Consider “TRIM21, endogenous (from UniProt P19474 1-475)”, for which the binding entry is given as “binds”.

Source of the values: publication PMC9951332.
